Values of other authors as cited in patent US20090192147A1, “[a]-FUSED INDOLE COMPOUNDS, THEIR USE AS mTOR KINASE AND PI3 KINASE INHIBITORS, AND THEIR [sequence]” (Wyeth, priority 2008, published 2009).
At least one structure is not confirmed: it was looked up by name or label, or the drawing left a doubt.

System: prostrate, breast, ovarian, lung, multiple myeloma, and brain cancers
Conditions: cited from earlier work

In the case of N=C(N)NCCC[C@H](NC(=O)CCC(=O)OC[N+]1(c2cc(=O)c3cccc(-c4ccccc4)c3o2)CCOCC1)C(=O)NCC(=O)N[C@@H](CC(=O)O)C(=O)N[C@@H](CO)C(=O)[O-] [SF-1126], the “activity in preclinical mouse cancer models” value is listed as “active”.
